Reference: PubChem BioAssay AID504444 (National Center for Advancing Translational Sciences (NCATS), 2011)
Where “and” joins values, the source holds several entries; their conditions need not be identical. Equal values may be shown once. Screen size: about 360,000 compounds; about 7,500 (2.1%) were called active. The shares of active, inactive and inconclusive entries below differ from those in the screen. The call rests on the fitted dose curve; in most records, active means well fitted inhibition curve with a large enough effect; inconclusive means small, poorly fitted or top-dose-only effect, or effect the other way; inactive means flat fitted curve, though single readings scatter. Where the call is inconclusive, the potency comes from a doubtful curve fit.

assay: Nrf2 qHTS screen for inhibitors; details: A549 ARE-Fluc reporter, luciferase luminescence, 18-24 h; activity change, negative = inhibition: at 46 µM (top of the series); further: nearly all actives have a fitted effect of over 60% in size
Procedure, shortened: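 A549 ARE_Fluc cells, 5000/well, 5% FBS OPTI-MEM; compounds in dose-response, 18-24 h at 37 °C/5% CO2; CellTiter-Fluor viability read (Ex 405/Em 525), then BugLite luciferase luminescence = Nrf2 activity.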
On the % scale 0 is the no-effect control and ±100 the full control effect; potency means the concentration at half of the fitted maximal effect.

Question: With COc1ccc([C@H]2CC(=O)C=C(c3cccc4c3sc3ccccc34)C2)cc1OC as the compound, how does the Potency read?
Answer: The Potency was inconclusive: 20.6 µM [falling, single point].

Question: With C/C(=C\C(=O)c1ccc(C)o1)Nc1ccc(C(=O)O)cc1C as the compound, how does the Potency read?
Answer: The Potency was “inactive”.

Question: For COc1ccccc1NC(=O)c1ccc(-c2ccccc2F)o1, which Potency is on record?
Answer: Its Potency is inconclusive: 8.2 µM [activator, partial curve].

Question: Which Potency does the source give for CCC(OC(=O)c1cc2sccc2n1C)C(=O)NCC1CCCO1 (stereo not drawn) here?
Answer: The Potency was “inactive”.

Question: With CCOc1ccccc1NC(=O)Nc1ccccn1 as the compound, how does the Potency read?
Answer: Its Potency is inconclusive: 5.17 µM [activator, full curve, poor fit].

Question: Which Potency does the source give for CCOc1ccc(NC(=O)c2ccc(OCC3CCCO3)cc2)cc1S(=O)(=O)N(CC)CC (stereo not drawn) here?
Answer: Its Potency is “inactive”.

Question: With COc1ccc(C2=Nn3c(nnc3-c3cc(OC)cc(OC)c3)SC2)cc1 as the compound, how does the Potency read?
Answer: The Potency was inconclusive: 0.326 µM [activator, full curve].

Question: Which Potency does the source give for CCc1ccc(/C=C2\SC(=S)N(CCC(=O)N3CCN(C)CC3)C2=O)cc1 here?
Answer: Its Potency is inconclusive: 8.2 µM [activator, partial curve, poor fit].

Question: Which Potency does the source give for CC(C)(C)c1ccc(NC(=O)C2CCCN(c3cnccn3)C2)cc1 (stereo not drawn) here?
Answer: The Potency was “inactive”.

Question: With CCN(CC)S(=O)(=O)c1cccc(C(=O)N[C@H](C(=O)NCc2ccccc2F)C(C)C)c1 as the compound, how does the Potency read?
Answer: The Potency was inconclusive: 9.2 µM [falling, partial curve, poor fit].

Question: Which Potency does the source give for CCS(=O)(=O)c1nnnn1-c1ccccc1S(C)(=O)=O here?
Answer: The Potency was “inactive”.

Question: Which Potency does the source give for COc1cc(/C=N/N=C/c2cc(OC)c(O)c(OC)c2)cc(OC)c1O here?
Answer: Its Potency is “inactive”.

Question: With O=C(OCc1ccccc1)N1CCOCCOCCN(C(=O)OCc2ccccc2)CCOCCOCC1 as the compound, how does the Potency read?
Answer: Its Potency is inconclusive: 20.6 µM [falling, partial curve, poor fit].

Question: With CCCNC(=O)c1c(N)n(-c2ccc3c(c2)OCO3)c2nc3ccccc3nc12 as the compound, how does the Potency read?
Answer: The Potency was “inactive”.

Question: Which activity change, negative = inhibition does the source give for Cc1nn(-c2ccccc2)c(OC(=O)C(C)C)c1Sc1ccc(Cl)cc1 here?
Answer: Its activity change, negative = inhibition is inactive: -14.1% [at 9.27 µM].

Question: With O=C(Cc1ccccc1)NCCC1=CCCCC1 as the compound, how does the Potency read?
Answer: Its Potency is inconclusive: 0.517 µM [activator, full curve].

Question: For CC(Sc1nc2ccccc2c(=O)n1C)C(=O)Nc1ccc2c(c1)OCCO2 (stereo not drawn), which Potency is on record?
Answer: The Potency was active: 5.17 µM.

Question: With COc1ccc(CN(C(=O)c2ccco2)C2CCS(=O)(=O)C2)cc1 (stereo not drawn) as the compound, how does the Potency read?
Answer: The Potency was “inactive”.

Question: Which Potency does the source give for CC1CCCN(CCCNC(=O)c2ccc3c(c2)N(Cc2ccccc2F)C(=O)c2ccccc2S3(=O)=O)C1 (stereo not drawn) here?
Answer: The Potency was “inactive and inconclusive: 1.46 µM [activator, full curve, poor fit]”.

Question: Which Potency does the source give for Oc1c(CN2CCCCC2)cc(Br)c2cccnc12 here?
Answer: The Potency was inconclusive: 29.1 µM [falling, single point].

Question: For COc1ccccc1CNC(=S)NC1CCCCC1, which Potency is on record?
Answer: Its Potency is active: 14.6 µM.

Question: With CNC(=S)N/N=C/c1ccc(-c2cc([N+](=O)[O-])ccc2Cl)o1 as the compound, how does the Potency read?
Answer: The Potency was inconclusive: 32.6 µM [falling, single point].

Question: For CCOc1ccc(CNCc2c(C(=O)O)n(Cc3ccccc3F)c3cc(OC)ccc23)cc1, which Potency is on record?
Answer: The Potency was “inactive”.

Question: Which Potency does the source give for O=C(NNC(=O)C(c1ccccc1)c1ccccc1)c1ccccn1 here?
Answer: Its Potency is active: 14.6 µM.

Question: For Cc1ccc(NC(=O)CCC(=O)N/N=C/c2coc3ccccc3c2=O)cc1, which Potency is on record?
Answer: The Potency was inconclusive: 29.1 µM [falling, single point].

Question: For O=C(Nc1ccc(Br)cc1F)C1CCN(c2nnc(-n3cccc3)s2)CC1, which Potency is on record?
Answer: The Potency was “inactive”.

Question: For COc1ccc(-c2cc(C(=O)O)n(Cc3ccccc3)n2)cc1, which Potency is on record?
Answer: The Potency was “inactive”.

Question: For COCCOC(=O)C1=C(C)NC(=O)NC1c1cccc2ccccc12 (stereo not drawn), which Potency is on record?
Answer: Its Potency is “inactive”.

Question: For CN(Cc1ccc2c(c1)OCCO2)C(=O)CSc1ncnc2sccc12, which Potency is on record?
Answer: The Potency was inconclusive: 29.1 µM [falling, single point].

Question: Which Potency does the source give for CC(=O)N1CCc2cc(S(=O)(=O)NC(CC(C)C)C(=O)Nc3ccc4c(c3)OCCO4)ccc21 (stereo not drawn) here?
Answer: Its Potency is inconclusive: 6.51 µM [activator, partial curve].

Question: Which Potency does the source give for CCOc1ccc(-c2nc(-c3ccc(OC)cc3)no2)cc1OCC here?
Answer: The Potency was inconclusive: 6.51 µM [falling, partial curve].

Question: With Cc1ccnc(NC(=O)c2cccc(S(=O)(=O)N3CCN(c4ccccc4)CC3)c2)c1 as the compound, how does the Potency read?
Answer: Its Potency is inconclusive: 0.92 µM [activator, full curve].

Question: With Nc1c(C(=O)Nc2ccc3c(c2)OCCO3)nnn1Cc1ccccc1Cl as the compound, how does the Potency read?
Answer: Its Potency is inconclusive: 3.66 µM [activator, full curve, poor fit].

Question: For COc1ccccc1NS(=O)(=O)c1cc(NC(=O)CNC(=O)c2cc(C)cc(C)c2)ccc1C, which Potency is on record?
Answer: Its Potency is inconclusive: 20.6 µM [falling, single point].

Question: For CCc1ccccc1NC(=O)c1ccc([N+](=O)[O-])s1, which Potency is on record?
Answer: The Potency was “inactive”.

Question: With Cc1cc(N2CCN(c3ccccc3)CC2)n2cc(-c3ccccc3)nc2n1 as the compound, how does the Potency read?
Answer: Its Potency is “inactive”.

Question: With CC1Sc2ccc(S(=O)(=O)CCC(=O)Nc3ccc(C(C)C)cc3)cc2NC1=O (stereo not drawn) as the compound, how does the Potency read?
Answer: The Potency was inconclusive: 7.31 µM [falling, partial curve, poor fit].

Question: For Cc1cccc(NS(=O)(=O)c2cc3c4c(c2)CC(=O)N4CCC3)c1C, which Potency is on record?
Answer: The Potency was inconclusive: 29.1 µM [falling, single point].

Question: With CCc1ccc(-c2nc(CSCC(=O)N3CCN(c4ncccn4)CC3)c(C)o2)cc1 as the compound, how does the Potency read?
Answer: The Potency was active: 20.6 µM.

Question: With CCOC(=O)C1CCCN(S(=O)(=O)c2ccc(F)c(C(=O)Nc3ccc(F)c(F)c3)c2)C1 (stereo not drawn) as the compound, how does the Potency read?
Answer: The Potency was inconclusive: 29.1 µM [falling, single point].

Question: Which Potency does the source give for CCOC(=O)N1CCN(S(=O)(=O)c2ccc(C(=O)NNc3nc4c(C)cc(C)cc4s3)cc2)CC1 here?
Answer: The Potency was inconclusive: 23.1 µM [falling, partial curve, poor fit].

Question: With CN(C)CCCOC(=O)c1cc2ccccc2o1 as the compound, how does the Potency read?
Answer: Its Potency is inconclusive: 25.9 µM [activator, single point].

Question: Which Potency does the source give for Cc1ccc2c(c1)cc1c(=O)n(CC(=O)NCc3ccccn3)nc(C)n12 here?
Answer: The Potency was inconclusive: 20.6 µM [falling, partial curve, poor fit].

Question: For Nc1cc(C(=O)c2cccs2)ccc1Cl, which Potency is on record?
Answer: Its Potency is inconclusive: 14.6 µM [activator, partial curve, poor fit].

Question: With CCCC(C)NNC(=O)c1cc2ccccc2[nH]1 (stereo not drawn) as the compound, how does the Potency read?
Answer: The Potency was inconclusive: 29.1 µM [activator, single point].

Question: With COc1cc2cnc(Cl)nc2cc1OC as the compound, how does the Potency read?
Answer: Its Potency is inconclusive: 4.61 µM [falling, partial curve, poor fit].

Question: Which Potency does the source give for CCCCN(CC)CCCNC(=O)c1sc2nc(C)cc(C)c2c1-n1cccc1 here?
Answer: The Potency was inconclusive: 18.4 µM [activator, partial curve, poor fit].

Question: With O=C(NCCOc1cccc(Oc2ccccc2)c1)c1cc(-n2cnnc2)ccc1Cl as the compound, how does the Potency read?
Answer: The Potency was inconclusive: 13 µM [falling, partial curve, poor fit].

Question: Which Potency does the source give for NC(=O)c1cccc(-c2noc(-c3ccccc3F)n2)c1 here?
Answer: The Potency was inconclusive: 2.91 µM [activator, full curve].

Question: With CCN(CC(=O)Nc1ccc(NC(C)=O)cc1)C(=O)/C=C/c1c(C)nn(-c2ccc(F)cc2)c1C as the compound, how does the Potency read?
Answer: The Potency was “inactive”.

Question: With O=C(c1cccc([N+](=O)[O-])c1)N1CCN(Cc2ccc3c(c2)OCO3)CC1 as the compound, how does the Potency read?
Answer: The Potency was inconclusive: 5.17 µM [activator, single point].

Question: With C=CCn1c(C)cc(C(=O)CSc2nnc(-c3cccc(S(=O)(=O)N(CC)CC)c3)o2)c1C as the compound, how does the Potency read?
Answer: Its Potency is inconclusive: 25.9 µM [falling, single point].

Question: Which Potency does the source give for COc1cccc(C(O)c2nc3ccccc3n2C(C)C)c1 (stereo not drawn) here?
Answer: Its Potency is inconclusive: 25.9 µM [falling, single point].

Question: For Cc1ccccc1C(=O)c1cccn1CC(=O)NCc1ccccc1, which Potency is on record?
Answer: Its Potency is inconclusive: 29.1 µM [activator, single point].

Question: With Cc1cc2cc(CNC(=O)c3cccs3)ccc2n1C as the compound, how does the Potency read?
Answer: Its Potency is “inactive”.

Question: For COc1cc(C2/C(=C(\O)c3ccc4c(c3)CC(C)O4)C(=O)C(=O)N2CCN2CCOCC2)cc(OC)c1OC (stereo not drawn), which Potency is on record?
Answer: The Potency was inconclusive: 18.4 µM [activator, single point].

Question: Which Potency does the source give for NC(=O)CC(NC(=O)c1ccccc1)c1ccc(N2CCC(Cc3ccccc3)CC2)c([N+](=O)[O-])c1 (stereo not drawn) here?
Answer: The Potency was active: 10.3 µM.

Question: With O=C(Nc1ccccc1Oc1ccccc1)c1cccc([N+](=O)[O-])c1 as the compound, how does the Potency read?
Answer: Its Potency is “inactive”.

Question: For CCn1c(COc2cccc(C)c2)nnc1SCC(=O)CC(=O)Nc1ccccc1OC, which Potency is on record?
Answer: Its Potency is inconclusive: 7.31 µM [falling, partial curve, poor fit].

Question: For O=C(CCl)Nc1cccc(-c2cnc3ccccc3n2)c1, which Potency is on record?
Answer: Its Potency is “inactive”.

Question: For CC(C)COc1ccc(CNC(=S)NCc2ccccc2)cc1, which Potency is on record?
Answer: Its Potency is inconclusive: 29.1 µM [falling, single point].

Question: With Cc1sc2ncnc(SCC(=O)Nc3cccc(S(N)(=O)=O)c3)c2c1C as the compound, how does the Potency read?
Answer: Its Potency is inconclusive: 29.1 µM [falling, single point].

Question: For CCCOc1ccc(CCC(=O)N/N=C/c2ccc([N+](=O)[O-])o2)cc1, which Potency is on record?
Answer: Its Potency is inconclusive: 11.6 µM [falling, partial curve].

Question: With COc1ccc(N(C)S(=O)(=O)c2cccc(C(=O)NC3CCCCCC3)c2)cc1 as the compound, how does the Potency read?
Answer: Its Potency is inconclusive: 16.4 µM [falling, partial curve, poor fit].

Question: Which Potency does the source give for COc1ccc(-c2csc(Nc3ccc(C)cn3)n2)cc1 here?
Answer: The Potency was inconclusive: 2.31 µM [activator, partial curve, poor fit].

Question: Which Potency does the source give for c1ccc(-c2nnc(CSc3ccc4c(c3)OCCO4)o2)cc1 here?
Answer: Its Potency is inconclusive: 29.1 µM [falling, single point].

Question: Which Potency does the source give for CC(=O)OCC(NC(=O)C(CCCCNC(=O)OCc1ccccc1)NC(=O)OC(C)(C)C)C1OC(n2ccc(=O)[nH]c2=O)C(OC(C)=O)C1OC(C)=O (stereo not drawn) here?
Answer: The Potency was “inactive”.

Question: With CC(=O)Nc1ccc(S(=O)(=O)N2CCC(n3c(C(F)(F)F)nc4cccnc43)CC2)cc1 as the compound, how does the Potency read?
Answer: The Potency was “inactive”.
